Paper doi:10.1101/161802
Results are given in words; binding and its absence hold for the method and conditions named. Binding can be weak; no strength is given.

Amino acid sequences for entries named in this document (tags omitted). A change or cut given only in a name is not applied to a line headed by its entry. Residues count along the entry.
UniProt Q9GZZ9, residues 314-404: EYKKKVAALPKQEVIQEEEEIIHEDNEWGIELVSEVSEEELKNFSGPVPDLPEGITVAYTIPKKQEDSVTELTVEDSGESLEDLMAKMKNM
UniProt P61960: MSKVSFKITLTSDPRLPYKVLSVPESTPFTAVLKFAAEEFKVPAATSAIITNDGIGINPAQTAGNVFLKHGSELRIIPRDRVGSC

target: GST-Uba5^314-404 (UniProt Q9GZZ9); assay: pull-down

Substance | binding
Ufm1 T46A (from UniProt P61960) | binds
Ubiquitin fold modifier 1 (Ufm1), wild type (from UniProt P61960) | binds

Second part, the substance after the results:

binding | Substance
binds | Ufm1 L33A (from UniProt P61960)
binds | Ufm1 S47A (from UniProt P61960)
binds | Ufm1 V66A (from UniProt P61960)
